The other results are listed elsewhere or left out. Shown are side measurements of this screen, not its main read-out; they come without a call. Most of these compounds were active or inconclusive in the main read-out, so they are no random draw. The note in brackets gives the kind of curve behind each potency; many fits are weak.
Assay: qHTS Assay for Lipid Storage Modulators in Drosophila S3 Cells;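 as to cell number change: cells counted by Cell Tracker Red CMTPX staining in the red channel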
Details: BODIPY lipid droplet fluorescence, 18-24 h; for cell number change: measured here: cell count max response, cells fed with added oleic acid
In short: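 Laser-scanning cytometry quantifies lipid droplet accumulation (500–530 nm total intensity; droplet/cell object ratio) in oleic acid-fed (400 uM added) Drosophila S3 cells treated with a concentration series. 20 uM Triacsin C defined 100% inhibition.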

[1] = measured here: lipid fluorescence (Fed channel) AC50, cells fed with added oleic acid
[2] = measured here: cell number channel AC50, cells fed with added oleic acid

For `COc1ccc(CCNC(=O)Cn2nnc(C(=O)Nc3cccc(C)c3C)c2N)cc1OC`, the AC50 [1] was 29.1 µM [rising, single point].

With `CCC1CCCCN1S(=O)(=O)c1c(C)n(C)c(=O)n(C)c1=O` (configuration not stated) the cell number change was 0.122% and the AC50 [1] was 25.9 µM [falling, partial curve].

With `Cn1c2ccccc2c2cc(C(=O)NNS(=O)(=O)c3ccc(F)cc3)sc21` the AC50 [2] was 2.91 µM [rising, partial curve] and the AC50 [1] was 0.92 µM [rising, partial curve].

In the case of `O=C(NCCCNc1ccnc2cc(Cl)ccc12)c1ccccc1F`, the cell number change is reported as 25.4% and the AC50 [1] is reported as 20.6 µM [rising, single point].

For `Cc1ccc(NC(=O)CSc2nnc(CNC(=O)c3ccco3)o2)cc1Cl`, the cell number change was 4.61% and the AC50 [1] was 6.51 µM [rising, single point].

In the case of `CSc1cccc(NS(=O)(=O)c2ccccc2)c1`, the cell number change is reported as 151%, the AC50 [2] is reported as 18.4 µM [rising, single point] and the AC50 [1] is reported as 20.6 µM [rising, partial curve].

With `CCCCP(=O)(c1ccccn1)c1ccccn1` the cell number change was 12.6% and the AC50 [1] was 5.17 µM [falling, single point].

For `COc1ccc(/C=N/NC(=O)CN(CCc2ccccc2)S(=O)(=O)c2ccc(NC(C)=O)cc2)cc1OC`, the cell number change was 9.41% and the AC50 [1] was 36.6 µM [rising, partial curve, poor fit].

In the case of `C/C=C/c1ccc(OCCCCOc2ccc(OC)cc2)c(OC)c1`, the cell number change is reported as 19.5%, the AC50 [2] is reported as 2.31 µM [falling, partial curve] and the AC50 [1] is reported as 1.03 µM [falling, single point].

For `COc1ccc(OC)c(-c2oc3ccccc3c(=O)c2O)c1`, the cell number change was 82.9%, the AC50 [2] was 18.4 µM [rising, single point] and the AC50 [1] was 29.1 µM [rising, single point].

With `C/C(=N\Nc1ccc(C(=O)O)cc1)c1ccc(Br)cc1` the cell number change was 17.8% and the AC50 [1] was 1.84 µM [rising, full curve, poor fit].

For `O=C(CSC(=S)N1CCCCC1)N1N=CCC1c1ccccc1` (configuration not stated), the cell number change was 45.5% and the AC50 [2] was 14.6 µM [rising, single point].

`CNc1cc(Cl)nc(SC)n1` showed a cell number change of 12.9%.

For `CCOC(=O)NC1(NC(C)C)Oc2ccccc2O1`, the cell number change was -25.8%, the AC50 [2] was 0.13 µM [falling, full curve, poor fit] and the AC50 [1] was 0.651 µM [falling, partial curve].

For `C/C(N)=C(/C#N)C(=O)COC(=O)CCSc1ccccc1Cl`, the cell number change was 12.7%.

In the case of `Oc1[nH]c2ccc(Br)cc2c1N=NC(=S)Nc1ccc(F)cc1`, the cell number change is reported as -24.3% and the AC50 [2] is reported as 0.164 µM [rising, full curve].

With `COc1ccc(CN2CCN(Cc3cn(C)nc3-c3ccccc3)CC2CCO)c(C)c1C` (configuration not stated) the cell number change was -9.99%, the AC50 [2] was 0.731 µM [falling, single point] and the AC50 [1] was 0.731 µM [falling, partial curve, poor fit].

In the case of `COc1cc(/C=C2\SC(=S)N(NS(=O)(=O)c3ccccc3)C2=O)ccc1O`, the cell number change is reported as -51.7%, the AC50 [2] is reported as 0.146 µM [falling, full curve] and the AC50 [1] is reported as 0.0731 µM [falling, full curve].

Work on `CCOC(=O)N1CCC(Nc2c(N3CCN(c4cccc(C(F)(F)F)c4)CC3)c(=O)c2=O)CC1` yielded a cell number change of -30.8%.

With `Cc1noc(C)c1CSCC(=O)N(C)CC(=O)Nc1ccc(F)c(F)c1F` the AC50 [1] was 20.6 µM [rising, partial curve].

In the case of `O=C(O)C1C2C=CC(C2)C1C(=O)NC1CCS(=O)(=O)C1` (configuration not stated), the cell number change is reported as -11.3% and the AC50 [1] is reported as 18.4 µM [rising, single point].

In the case of `Cc1nc2ccc(S(=O)(=O)Nc3ccccc3C)cc2s1`, the cell number change is reported as -6.91% and the AC50 [1] is reported as 14.6 µM [falling, partial curve, poor fit].

With `CCCOc1ccc(-c2nc(C#N)c(NCC3CCCO3)o2)cc1` (configuration not stated) the cell number change was 71.9% and the AC50 [2] was 8.2 µM [rising, partial curve].

For `CC(=O)C1=C(C)NC(SCC(=O)c2ccc(Cl)cc2)=C(C#N)C1c1ccco1` (configuration not stated), the cell number change was -23.4% and the AC50 [1] was 29.1 µM [falling, single point].

In the case of `COc1ccc(-c2cc(C(F)(F)F)n3ncc(C(=O)N4CCc5ccccc5C4)c3n2)cc1`, the cell number change is reported as -13.3% and the AC50 [1] is reported as 18.4 µM [falling, single point].

With `Cc1[nH]ccc2c1[nH]c1cc(=O)ccc12` the cell number change was 8.52%.

With `Cc1nnc(SCC(=O)N2CCN(S(=O)(=O)c3ccccc3)CC2)s1` the AC50 [2] was 0.651 µM [falling, full curve].

In the case of `O=C(O)CC1c2ccccc2CCN1S(=O)(=O)c1ccc(F)cc1` (configuration not stated), the cell number change is reported as 23.6%.

For `O=C1CNC(=S)N1C(CO)c1ccccc1` (configuration not stated), the cell number change was -33.8% and the AC50 [2] was 0.461 µM [falling, full curve, poor fit].

In the case of `Cc1cccc(C)c1NC(=O)CS(=O)CC(=O)Nc1ccc(N2CCOCC2)cc1` (configuration not stated), the cell number change is reported as 25.8% and the AC50 [1] is reported as 0.164 µM [falling, single point].

Work on `CCOc1cccc(CN2CCC(N3CCC(C(=O)NCC4CCCO4)CC3)CC2)c1` (configuration not stated) yielded a cell number change of 7.78%.

In the case of `Cc1nc(NC(=O)CCCC(=O)Nc2nc(C)c(C)s2)sc1C`, the cell number change is reported as -29.2% and the AC50 [1] is reported as 29.1 µM [falling, single point].

With `COc1ccc2nc(N3CCN(C(=O)c4ccc5ncsc5c4)CC3)sc2c1` the cell number change was -9.79% and the AC50 [2] was 6.51 µM [falling, single point].

For `CCOc1ccccc1N1CCN(C(=O)CNC(=O)c2ccc(OC)c(OC)c2)CC1`, the cell number change was -18.1% and the AC50 [1] was 29.1 µM [falling, single point].

In the case of `CCOCCN(C=O)c1cccc(OC)c1`, the cell number change is reported as -0.668%.

In the case of `O=C(CN1CCCCC1)Nc1ccc(S(=O)(=O)NC2CCCCC2)cc1`, the cell number change is reported as 14.9%.

In the case of `COc1ccc2nc3cc(Cl)ccc3c(Nc3cc(C(C)C)c(O)cc3C)c2c1`, the cell number change is reported as -63.9%, the AC50 [2] is reported as 23.1 µM [falling, partial curve] and the AC50 [1] is reported as 20.6 µM [falling, partial curve].

With `C#CCOCCOCCOCCNc1nc(N2CCOCC2)nc(N2CCN(C(=O)CCCCCCCCCCNC(=O)[C@H]([C@@H](C)CC)n3cc(CCCCN=C(N)N)nn3)CC2)n1` the cell number change was 11.9% and the AC50 [1] was 0.00411 µM [falling, full curve, poor fit].

With `COc1ccc(NC(=O)CCN=C2NS(=O)(=O)c3ccccc32)cc1S(=O)(=O)N(C)C` the cell number change was 7.57%.

`COc1cc(SC)ccc1C(=O)NCCCn1ccnc1` showed a cell number change of 15.5%.

In the case of `O=C(O)c1cccc(NC(=O)c2ccccc2NC(=O)c2cccc([N+](=O)[O-])c2)c1`, the cell number change is reported as -15.7% and the AC50 [1] is reported as 6.51 µM [rising, single point].

For `CC(C)OP(C)(=O)CN1CCN(CP(C)(=O)OC(C)C)CC1` (configuration not stated), the cell number change was -14.5% and the AC50 [1] was 0.82 µM [falling, full curve, poor fit].

With `CCCn1cc(SCC(=O)Nc2ccc3c(c2)OCO3)c2ccccc21` the cell number change was 6.87%, the AC50 [2] was 1.64 µM [rising, partial curve, poor fit] and the AC50 [1] was 0.461 µM [rising, full curve, poor fit].

`S=C(NCCc1ccccc1)Nc1ccc(Br)cn1` showed a cell number change of -60.4%.

For `CC(C)Cc1nnc(NC(=O)CCC(=O)N2CCN(Cc3ccc(Cl)cc3)CC2)s1`, the cell number change was 10.1% and the AC50 [1] was 6.51 µM [rising, single point].

For `Cc1c(NC(=O)/C(C#N)=C/c2cccs2)c(=O)n(-c2ccccc2)n1C`, the cell number change was 11.9%.

With `Nc1n[nH]c(-c2ccc(F)cc2)n1` the cell number change was 11.2% and the AC50 [1] was 2.59 µM [rising, partial curve].

For `CCCC(=O)Nc1nnc(SCC(=O)NCc2cccs2)s1`, the cell number change was 7.9% and the AC50 [1] was 1.84 µM [rising, partial curve].

For `Cc1ccc(NC(=O)CSc2nn3c(=O)c(C)nnc3s2)cc1Cl`, the cell number change was -6.54% and the AC50 [1] was 29.1 µM [falling, single point].

For `COc1cccc(NC(=O)CSc2nc3ccccc3c3nc4ccccc4n23)c1`, the cell number change was 9.7% and the AC50 [1] was 0.461 µM [rising, full curve].

With `Cc1cc(C)c2c(N)c(C(=O)NN3CC(=O)N(c4ccccc4F)CC3=O)sc2n1` the cell number change was 23.9%, the AC50 [2] was 3.26 µM [rising, single point] and the AC50 [1] was 18.4 µM [rising, single point].

With `CCCOc1c(Br)cc(C(N)=O)cc1OCC` the AC50 [2] was 0.92 µM [falling, partial curve, poor fit] and the AC50 [1] was 0.326 µM [falling, full curve, poor fit].

For `O=C1CC2(CCN(S(=O)(=O)c3ccccc3)CC2)Oc2ccccc21`, the cell number change was 9.34% and the AC50 [1] was 0.00461 µM [falling, full curve, poor fit].

In the case of `Cn1c(CCN2CCN(c3ccccn3)CC2)nc2cc(NS(=O)(=O)c3ccc(Cl)cc3)ccc21`, the cell number change is reported as -29%, the AC50 [2] is reported as 2.31 µM [falling, full curve, poor fit] and the AC50 [1] is reported as 0.731 µM [falling, partial curve, poor fit].

In the case of `CC(C)Cc1nnc(NC(=O)CCC(=O)Nc2ccc(Cl)cc2)s1`, the cell number change is reported as -1.53% and the AC50 [1] is reported as 0.82 µM [rising, single point].

In the case of `CCOC(=O)c1c(C)n(-c2ccc(C)cc2)c2ccc(OCC(O)CN3CCN(C)CC3)cc12` (configuration not stated), the cell number change is reported as -28% and the AC50 [1] is reported as 0.731 µM [falling, full curve, poor fit].

In the case of `O=[N+]([O-])c1cc(C(F)(F)F)ccc1Sc1nccn1Cc1ccccc1`, the cell number change is reported as 129%, the AC50 [2] is reported as 18.4 µM [rising, single point] and the AC50 [1] is reported as 29.1 µM [rising, single point].

For `COc1cccc(NC(=S)N(Cc2ccco2)C(C)c2ccco2)c1` (configuration not stated), the cell number change was 9.13% and the AC50 [1] was 6.51 µM [rising, single point].

For `Cc1ccc(Cn2cccc2/C=C2/C(=N)N3C=CSC3=NC2=O)cc1`, the cell number change was -24.6% and the AC50 [1] was 16.4 µM [falling, single point].

With `Cc1cccc(CCN2C(Nc3ccccc3)=NC[C@@H]2C)c1` the cell number change was 27.4%.

With `C=CCNC(=O)C1CC(=O)N(c2ccc(OCC(=O)N3CCCC3)cc2)C1` (configuration not stated) the cell number change was 1.39% and the AC50 [2] was 6.51 µM [rising, single point].
